Earlier results in publication PMC7470163, “Effects of ticagrelor on the pharmacokinetics of rivaroxaban in rats” (Pharmaceutical Biology, 2020).

Details: co-administration of ticagrelor; ref Teng et al. [2013]; cited from earlier work

For `CC(C)c1c(C(=O)Nc2ccccc2)c(-c2ccccc2)c(-c2ccc(F)cc2)n1CC[C@@H](O)C[C@@H](O)CC(=O)O` [atorvastatin], the “increase of AUC” value is given as 36% and the “increase of Cmax” value is given as 23%.
